Results as given in paper PMC10423259.

Chains of the proteins cited; added tags and fusions are not shown.
UniProt Q9NYG5: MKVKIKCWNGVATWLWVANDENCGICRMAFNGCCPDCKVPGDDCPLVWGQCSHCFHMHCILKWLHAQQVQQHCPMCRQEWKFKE
UniProt O43524: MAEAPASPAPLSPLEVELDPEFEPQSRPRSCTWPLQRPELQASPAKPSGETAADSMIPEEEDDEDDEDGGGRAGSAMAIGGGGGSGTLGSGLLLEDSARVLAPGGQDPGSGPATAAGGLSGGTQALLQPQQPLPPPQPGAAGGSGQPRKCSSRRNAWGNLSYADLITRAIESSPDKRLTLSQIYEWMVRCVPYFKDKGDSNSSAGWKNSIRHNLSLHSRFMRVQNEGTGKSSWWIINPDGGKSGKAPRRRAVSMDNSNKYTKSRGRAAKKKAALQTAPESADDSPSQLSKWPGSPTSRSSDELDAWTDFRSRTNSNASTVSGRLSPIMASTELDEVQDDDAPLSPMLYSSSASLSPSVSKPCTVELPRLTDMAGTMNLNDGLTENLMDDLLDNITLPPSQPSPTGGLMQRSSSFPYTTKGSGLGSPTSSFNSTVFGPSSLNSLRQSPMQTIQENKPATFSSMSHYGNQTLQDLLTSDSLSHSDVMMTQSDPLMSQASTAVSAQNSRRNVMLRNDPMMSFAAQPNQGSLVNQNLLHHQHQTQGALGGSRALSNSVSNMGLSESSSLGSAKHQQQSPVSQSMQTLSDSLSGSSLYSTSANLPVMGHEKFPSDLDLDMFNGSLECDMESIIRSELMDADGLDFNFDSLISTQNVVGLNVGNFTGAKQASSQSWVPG

Molecular target: ANAPC11 (human (endogenous in T24 and UM-UC-3)) (UniProt Q9NYG5)
Assay: affinity purification with mass spectrometry; IP of endogenous ANAPC11 from UM-UC-3 cell lysate on Protein A/G magnetic beads conjugated with antibody, 4 °C overnight; eluate to mass spectrometry

binding: binds
Substance: FOXO3 (from UniProt O43524 1-673)

No constants are given. Whether binding was seen depends on the method and setting. Binding seen in cells or lysates may run through a third protein. These calls come from enrichment with a bait or labelling near it, and not all partners need be listed.
